Source: PubChem BioAssay AID2685 (National Center for Advancing Translational Sciences (NCATS), 2010)
The other results are listed elsewhere or left out. These are further read-outs of the screen, such as a control signal, another cell line or another target. No call is given for them. The list favours compounds with an active or inconclusive main result. Potencies come from curve fits of mixed quality, noted in brackets.

Test: qHTS Assay for Lipid Storage Modulators in Drosophila S3 Cells;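 as to cell number change: cells counted by Cell Tracker Red CMTPX staining in the red channel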
Settings: BODIPY lipid droplet fluorescence, 18-24 h; for cell number change: measured here: cell count max response, cells fed with added oleic acid
In short: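 Laser-scanning cytometry quantifies lipid droplet accumulation (500–530 nm total intensity; droplet/cell object ratio) in oleic acid-fed (400 uM added) Drosophila S3 cells treated with a concentration series. 20 uM Triacsin C defined 100% inhibition.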

[1] = measured here: cell number channel AC50, cells fed with added oleic acid
[2] = measured here: lipid fluorescence (Fed channel) AC50, cells fed with added oleic acid

SMILES | AC50 [1] | AC50 [2] | cell number change [%]
O=C(Nc1ccccc1Br)C1CCCN1S(=O)(=O)c1cccc2nsnc12 (stereo unspecified) | 0.0517 µM [rising, partial curve, poor fit] | 29.1 µM [falling, single point] | –
COc1ccc2[nH]cc(CCNC(=O)Cc3c(F)cccc3Cl)c2c1 | 14.6 µM [falling, single point] | – | -31.8
COc1ccccc1OCc1ccc(C(=O)NCC2CCCO2)o1 (stereo unspecified) | 6.51 µM [rising, single point] | – | –
Cc1nnc(SC(C)C)n(N)c1=O | – | – | 25.4
COC(=O)c1ccc(NC(=O)c2ccc[n+]([O-])c2)cc1 | – | – | -16.7
O=C(Oc1ccc(Br)cc1)c1cncc(Br)c1 | – | 1.84 µM [falling, partial curve] | -16
O=C(NC(=O)N1CCN(C(c2ccccc2)c2ccccc2)CC1)c1ccccc1 | – | 20.6 µM [rising, single point] | 8.25
O=C(Nc1ncccn1)c1ccc(Cl)c([N+](=O)[O-])c1 | – | 29.1 µM [falling, single point] | 2.64
CC(C)(C)n1nc2c(c1NC(=O)c1ccc(S(=O)(=O)N3CCCCC3)cc1)CS(=O)C2 (stereo unspecified) | 29.1 µM [rising, single point] | 29.1 µM [rising, single point] | 118
COc1ccc(-c2cc(C(=O)OCC(=O)c3cccc([N+](=O)[O-])c3)c3cc(C)ccc3n2)cc1 | – | 0.517 µM [rising, full curve] | 5.18
O=C1c2cccc3cccc(c23)C(=O)N1CCN1CCN(CC(O)COCc2ccc(Cl)cc2)CC1 (stereo unspecified) | – | 23.1 µM [falling, single point] | -15.9
CC(C)c1nc(CNC(=O)C2CCC(=O)N(CCc3cccc(F)c3)C2)cs1 (stereo unspecified) | – | – | -7.23
COc1ccc(S(=O)(=O)Nc2cc(C)nn2-c2ccccc2)cc1 | 9.2 µM [rising, single point] | – | 34.3
CCOc1ccc(C(=O)OCC(=O)Nc2ccc(SC(F)F)cc2)cc1OCC | – | 14.6 µM [rising, partial curve] | 16.1
CC(=C/c1ccccc1)/C=N/n1c(-c2ccncc2)n[nH]c1=S | – | – | -9.12
COc1cccc(-c2[nH]nc3c2C(c2ccoc2)C(C#N)=C(N)O3)c1 (stereo unspecified) | 1.84 µM [rising, partial curve] | 4.11 µM [rising, partial curve] | –
COc1ccc(S(=O)(=O)Nc2ccc3c(c2)n(C)c(=O)n3C)cc1OC | 11.6 µM [falling, partial curve, poor fit] | 29.1 µM [falling, single point] | -31.4

Some of the entries so far, field by field.
O=C(Nc1ccccc1Br)C1CCCN1S(=O)(=O)c1cccc2nsnc12 (stereo unspecified)
  AC50 [1]: 0.0517 µM [rising, partial curve, poor fit]
  AC50 [2]: 29.1 µM [falling, single point]
COc1ccc2[nH]cc(CCNC(=O)Cc3c(F)cccc3Cl)c2c1
  AC50 [1]: 14.6 µM [falling, single point]
  cell number change [%]: -31.8
